This passage reports binding results from doi:10.1101/2021.03.24.436729.

By UniProt entry, the sequences of proteins in these tests, tags left out.
UniProt P38398: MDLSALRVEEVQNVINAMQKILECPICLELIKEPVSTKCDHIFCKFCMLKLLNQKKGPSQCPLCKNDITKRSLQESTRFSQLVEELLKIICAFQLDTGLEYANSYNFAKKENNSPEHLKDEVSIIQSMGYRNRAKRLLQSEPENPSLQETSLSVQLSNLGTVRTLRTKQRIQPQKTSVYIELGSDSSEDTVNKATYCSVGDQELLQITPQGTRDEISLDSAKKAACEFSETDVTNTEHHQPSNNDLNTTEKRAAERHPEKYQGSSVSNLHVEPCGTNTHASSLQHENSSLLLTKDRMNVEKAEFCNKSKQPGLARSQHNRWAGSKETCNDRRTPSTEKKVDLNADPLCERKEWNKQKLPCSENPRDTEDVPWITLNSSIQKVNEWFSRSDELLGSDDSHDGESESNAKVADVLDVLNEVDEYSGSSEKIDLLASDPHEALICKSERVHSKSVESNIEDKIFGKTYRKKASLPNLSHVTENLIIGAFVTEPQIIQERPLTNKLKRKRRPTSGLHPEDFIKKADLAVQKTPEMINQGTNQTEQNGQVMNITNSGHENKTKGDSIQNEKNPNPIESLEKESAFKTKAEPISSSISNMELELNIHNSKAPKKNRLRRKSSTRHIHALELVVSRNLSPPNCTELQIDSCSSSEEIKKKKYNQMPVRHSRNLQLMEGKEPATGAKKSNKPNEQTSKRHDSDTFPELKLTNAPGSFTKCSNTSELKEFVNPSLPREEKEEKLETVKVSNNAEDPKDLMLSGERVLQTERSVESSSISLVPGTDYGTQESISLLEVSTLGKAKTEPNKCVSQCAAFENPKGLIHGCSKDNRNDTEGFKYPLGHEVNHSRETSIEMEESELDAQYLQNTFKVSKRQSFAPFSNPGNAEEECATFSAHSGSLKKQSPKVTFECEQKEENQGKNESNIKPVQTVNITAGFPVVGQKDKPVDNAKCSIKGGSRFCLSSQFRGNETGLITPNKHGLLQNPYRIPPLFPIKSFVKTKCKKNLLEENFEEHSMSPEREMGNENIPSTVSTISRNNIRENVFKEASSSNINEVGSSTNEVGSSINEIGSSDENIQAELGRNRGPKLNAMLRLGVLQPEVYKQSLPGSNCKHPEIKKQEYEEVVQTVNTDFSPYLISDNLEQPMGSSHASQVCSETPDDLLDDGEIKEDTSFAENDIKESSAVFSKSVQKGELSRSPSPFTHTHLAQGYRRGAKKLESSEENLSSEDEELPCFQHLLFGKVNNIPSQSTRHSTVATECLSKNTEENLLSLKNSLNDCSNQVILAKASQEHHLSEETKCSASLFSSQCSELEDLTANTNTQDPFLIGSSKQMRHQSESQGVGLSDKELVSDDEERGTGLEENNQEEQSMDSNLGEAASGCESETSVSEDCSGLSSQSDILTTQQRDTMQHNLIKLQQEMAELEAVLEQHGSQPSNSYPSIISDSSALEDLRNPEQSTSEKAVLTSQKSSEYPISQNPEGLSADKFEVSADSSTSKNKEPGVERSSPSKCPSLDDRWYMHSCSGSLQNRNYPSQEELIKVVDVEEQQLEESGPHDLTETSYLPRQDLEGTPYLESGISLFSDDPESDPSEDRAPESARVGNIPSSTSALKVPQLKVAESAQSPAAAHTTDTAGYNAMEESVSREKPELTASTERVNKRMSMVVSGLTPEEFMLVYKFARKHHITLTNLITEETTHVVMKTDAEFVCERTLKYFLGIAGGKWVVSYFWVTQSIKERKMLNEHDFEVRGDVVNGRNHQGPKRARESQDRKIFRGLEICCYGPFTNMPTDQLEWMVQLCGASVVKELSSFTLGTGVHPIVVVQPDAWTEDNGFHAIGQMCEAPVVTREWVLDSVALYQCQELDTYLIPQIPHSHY
UniProt Q7Z333: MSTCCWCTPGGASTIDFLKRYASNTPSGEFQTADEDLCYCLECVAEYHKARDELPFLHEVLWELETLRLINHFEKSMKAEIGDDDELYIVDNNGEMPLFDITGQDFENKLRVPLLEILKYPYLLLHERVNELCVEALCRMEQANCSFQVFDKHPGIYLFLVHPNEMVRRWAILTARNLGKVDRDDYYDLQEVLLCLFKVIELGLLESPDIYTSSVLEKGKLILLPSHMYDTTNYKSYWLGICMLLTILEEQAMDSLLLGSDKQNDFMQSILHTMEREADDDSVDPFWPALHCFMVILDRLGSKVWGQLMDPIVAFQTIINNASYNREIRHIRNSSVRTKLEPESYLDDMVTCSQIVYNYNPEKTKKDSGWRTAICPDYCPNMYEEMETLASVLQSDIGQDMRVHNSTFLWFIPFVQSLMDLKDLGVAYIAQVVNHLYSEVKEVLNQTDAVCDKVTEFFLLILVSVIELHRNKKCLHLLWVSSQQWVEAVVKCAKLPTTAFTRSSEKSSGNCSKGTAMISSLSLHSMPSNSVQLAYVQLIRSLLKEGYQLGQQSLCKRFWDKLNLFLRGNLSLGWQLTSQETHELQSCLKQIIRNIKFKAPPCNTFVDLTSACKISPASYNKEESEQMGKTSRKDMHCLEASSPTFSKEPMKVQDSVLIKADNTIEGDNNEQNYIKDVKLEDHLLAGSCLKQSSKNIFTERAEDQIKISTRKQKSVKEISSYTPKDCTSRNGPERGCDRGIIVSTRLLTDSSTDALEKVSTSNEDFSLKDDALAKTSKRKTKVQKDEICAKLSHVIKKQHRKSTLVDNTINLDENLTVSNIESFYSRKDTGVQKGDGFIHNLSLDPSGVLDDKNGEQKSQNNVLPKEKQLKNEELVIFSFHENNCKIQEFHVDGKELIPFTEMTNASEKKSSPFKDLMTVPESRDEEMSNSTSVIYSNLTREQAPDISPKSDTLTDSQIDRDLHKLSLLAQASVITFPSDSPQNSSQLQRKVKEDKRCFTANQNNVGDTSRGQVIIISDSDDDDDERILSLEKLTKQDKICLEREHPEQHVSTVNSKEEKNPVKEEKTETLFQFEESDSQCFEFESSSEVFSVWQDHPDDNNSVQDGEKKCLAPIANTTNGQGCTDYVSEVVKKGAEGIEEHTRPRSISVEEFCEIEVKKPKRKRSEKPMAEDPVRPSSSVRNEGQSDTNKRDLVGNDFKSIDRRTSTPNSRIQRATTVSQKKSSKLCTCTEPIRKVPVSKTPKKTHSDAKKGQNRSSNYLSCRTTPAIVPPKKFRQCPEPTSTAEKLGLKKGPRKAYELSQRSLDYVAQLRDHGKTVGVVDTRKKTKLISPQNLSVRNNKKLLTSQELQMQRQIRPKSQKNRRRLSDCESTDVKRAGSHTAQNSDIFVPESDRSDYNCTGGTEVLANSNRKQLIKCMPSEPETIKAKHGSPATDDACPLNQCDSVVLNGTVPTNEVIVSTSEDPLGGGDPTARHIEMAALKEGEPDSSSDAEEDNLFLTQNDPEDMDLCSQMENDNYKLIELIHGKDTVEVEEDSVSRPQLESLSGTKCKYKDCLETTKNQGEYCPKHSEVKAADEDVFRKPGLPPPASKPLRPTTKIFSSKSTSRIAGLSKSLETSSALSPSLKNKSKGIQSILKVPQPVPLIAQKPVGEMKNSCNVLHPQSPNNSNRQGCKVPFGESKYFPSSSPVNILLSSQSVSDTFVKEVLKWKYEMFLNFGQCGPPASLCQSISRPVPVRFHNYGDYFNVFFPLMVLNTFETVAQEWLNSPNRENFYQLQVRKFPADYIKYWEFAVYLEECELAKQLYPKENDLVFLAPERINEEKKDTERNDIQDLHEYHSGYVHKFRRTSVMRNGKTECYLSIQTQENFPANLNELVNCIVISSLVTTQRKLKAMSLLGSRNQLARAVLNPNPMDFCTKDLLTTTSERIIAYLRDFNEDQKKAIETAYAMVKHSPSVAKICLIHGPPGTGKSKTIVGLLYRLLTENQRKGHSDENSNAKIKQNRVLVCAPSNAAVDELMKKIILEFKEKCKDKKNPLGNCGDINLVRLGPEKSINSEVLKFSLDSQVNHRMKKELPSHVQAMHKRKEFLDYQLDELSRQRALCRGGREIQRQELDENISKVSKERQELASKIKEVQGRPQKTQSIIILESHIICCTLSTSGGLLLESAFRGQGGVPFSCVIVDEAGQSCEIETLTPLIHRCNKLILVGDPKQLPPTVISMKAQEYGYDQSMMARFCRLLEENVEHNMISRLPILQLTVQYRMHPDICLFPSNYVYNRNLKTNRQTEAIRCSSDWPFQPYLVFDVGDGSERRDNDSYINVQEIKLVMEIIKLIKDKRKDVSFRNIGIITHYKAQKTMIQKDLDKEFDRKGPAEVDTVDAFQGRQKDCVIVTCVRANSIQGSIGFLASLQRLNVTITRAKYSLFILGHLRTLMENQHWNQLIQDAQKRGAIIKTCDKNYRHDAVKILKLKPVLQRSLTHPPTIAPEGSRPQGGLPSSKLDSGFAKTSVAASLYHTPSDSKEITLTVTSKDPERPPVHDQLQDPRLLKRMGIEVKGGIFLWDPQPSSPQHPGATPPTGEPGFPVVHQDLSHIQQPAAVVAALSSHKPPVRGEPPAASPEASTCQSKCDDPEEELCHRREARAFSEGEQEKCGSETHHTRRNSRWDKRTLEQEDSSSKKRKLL
UniProt P13010: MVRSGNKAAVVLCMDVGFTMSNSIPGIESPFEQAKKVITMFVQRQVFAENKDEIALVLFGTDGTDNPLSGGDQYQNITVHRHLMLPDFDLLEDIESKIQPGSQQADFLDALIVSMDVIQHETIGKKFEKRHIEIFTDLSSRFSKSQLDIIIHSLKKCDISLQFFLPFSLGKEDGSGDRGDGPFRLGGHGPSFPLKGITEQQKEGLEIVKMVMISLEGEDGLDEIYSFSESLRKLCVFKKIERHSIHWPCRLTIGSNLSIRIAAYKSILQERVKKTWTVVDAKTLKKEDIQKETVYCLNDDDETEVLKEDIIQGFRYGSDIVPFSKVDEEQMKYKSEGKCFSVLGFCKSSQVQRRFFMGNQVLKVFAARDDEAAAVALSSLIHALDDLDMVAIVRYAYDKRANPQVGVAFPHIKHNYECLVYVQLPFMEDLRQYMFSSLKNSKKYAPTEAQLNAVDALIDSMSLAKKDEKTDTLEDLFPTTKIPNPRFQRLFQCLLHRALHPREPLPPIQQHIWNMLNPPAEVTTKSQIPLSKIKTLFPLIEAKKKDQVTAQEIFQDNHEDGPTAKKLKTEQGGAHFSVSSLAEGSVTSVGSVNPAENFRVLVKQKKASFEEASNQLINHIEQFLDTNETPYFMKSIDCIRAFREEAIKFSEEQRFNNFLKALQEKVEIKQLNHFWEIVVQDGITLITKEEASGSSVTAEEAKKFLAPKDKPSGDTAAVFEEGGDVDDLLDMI

Holding throughout (assay): co-IP
For test [1], the target named is BRCA1 (human (endogenous in U2OS)) (UniProt P38398).
Test [2] concerns the target ADAR2 (human (endogenous in U2OS)) (UniProt P78563).
The target of test [3] is Senataxin (human (endogenous in U2OS)) (UniProt Q7Z333).

These are yes or no findings as the source states them, for the method shown. In cells and extracts the contact can be indirect. Some results given as binding are weak or reduced against the parent protein; the word gives no strength.

In the case of “Senataxin (from UniProt Q7Z333 1-2677) (enzyme)”, the binding result in test [1] and in test [2] was “binds” throughout.

As for Ku80 (from UniProt P13010 1-732), in test [2], the binding result is reported as “no binding”.

Regarding “ADAR2 (from UniProt P78563 1-741) (enzyme)”, the binding entry in test [3] and in test [1] was “binds” throughout.
